Tested on: CT-DNA-EB adduct
Assay: Fluorescence competitive displacement of ethidium bromide from CT-DNA
Set-up: species or system calf
Conditions: number of binding sites
Description: The Stern–Volmer plot approach was used based on the fact that the Stern–Volmer plots for Q1–Q15 (Figure 5c), were linear an indication of only one mechanism for the quenching fluorescence, i.e., either dynamic or static. […] (1) Ksv=Kqτo where Ksv, Kq, and τo represent Stern–Volmer quenching constant, bimolecular quenching constant, and an average lifetime of the fluorophore in the absence of the quencher, respectively. τₒ normally takes about 10^−8 s in biomacromolecules.
The double-logarithmic Equation (2) was used in determining the binding constant of complexes Q1–Q15 and CT-DNA. (2) logFo−F/F=logKb+n logQ
A competitive displacement study was carried out using fluorescence spectroscopy between CT-DNA pre-treated with ethidium bromide (EB) and complexes Q1–Q15 to establish the complexes′ actual mode of binding to CT-DNA. […] The competitive luminescence displacement assay was done using a modified method. Pre-treated 15 µM solution of EB with 15 µM of CT-DNA was prepared in a phosphate buffer of pH 7.2 and left to equilibrate for 30 min. […] The fluorescence quenching ability of CT-DNA bound EB by the complexes were recorded in the wavelength range of 530–700 nm with an excitation wavelength at 525 nm at 25 °C. […]
A Stern–Volmer (Equation (6)) was used to evaluate the CT-DNA-EB fluorescence quenching of the complexes. […]

[Ag+].[O-][Cl+3]([O-])([O-])[O-] [AgClO4, silver perchlorate, reference compound] was tested, and the CT-DNA-EB-Complex n was 1.26.
O=[N+]([O-])[O-].[Ag+] [AgNO3, silver nitrate, reference compound] showed a CT-DNA-EB-Complex n of 1.24.

— paper PMC7956476, “Quinoline Functionalized Schiff Base Silver (I) Complexes: Interactions with Biomolecules and In Vitro Cytotoxicity, Antioxidant and Antimicrobial Activities” (Molecules, 2021)
